For at least one entry, the source does not settle the construct or the ends of the probe. No signal at the amounts used counts as a negative. Protein sequences can lack the tags named with them.

From article PMC5725467, “Elongated Hypocotyl 5-Homolog (HYH) Negatively Regulates Expression of the Ambient Temperature-Responsive MicroRNA Gene MIR169” come the findings set out here.

The target in this data set is T1, HYH.2-His (HYH splice isoform 2) (UniProt Q8W191).
T1 sequence (looked up, limits assumed): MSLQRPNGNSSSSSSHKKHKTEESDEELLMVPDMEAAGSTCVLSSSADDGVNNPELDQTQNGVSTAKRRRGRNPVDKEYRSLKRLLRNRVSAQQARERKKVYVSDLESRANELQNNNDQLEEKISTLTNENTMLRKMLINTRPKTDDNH
The data set can be described thus: EMSA. To be noted: 100 ng protein; EMSA: LightShift Chemiluminescent EMSA Kit (manufacturer's instructions), 100 ng HYH.2-His, room temperature 30 min, 8% native polyacrylamide gel; recombinant protein; protein details: His (pET28a+); label: 5'-biotin; letters put together from the description. A general note: In EMSA bound probe runs differently from free probe, usually more slowly.

“TGTACGGCACATACCCCTTGACCTAC (double strand) [miR169a mutant G-box-like (mG)]”: the binding result was “no binding”.
